From patent publication EP0249394B1 (THE UNITED STATES OF AMERICA as represented by the …, priority 1986, dated 1993)
Part of at least one peptide drawing is inferred or uncertain, most often the ends.

Tests used:
HTLV-III virus = assay: Blockade of viral infection of human T cells (reverse transcriptase activity); format: cell-based; conditions: for rank order of potencies: same rank order for inhibiting receptor binding and viral infectivity, Figure 3
T4 antigen = assay: Displacement of specific ¹²⁵I-gp120 binding to fresh rat hippocampal (brain) membranes

C[C@@H](N)C(=O)N[C@@H](CO)C(=O)N[C@H](C(=O)N[C@H](C(=O)N[C@H](C(=O)N[C@@H](CC(N)=O)C(=O)N[C@@H](Cc1ccc(O)cc1)C(=O)N[C@H](C(N)=O)[C@@H](C)O)[C@@H](C)O)[C@@H](C)O)[C@@H](C)O [D-[Ala]₁-peptide T-amide]
rank order of potencies (HTLV-III virus): D-[Ala]₁-peptide T-amide > D-[Ala]₁-peptide T > peptide T > D-[Thre]₈-peptide T-amide

C[C@H](N)C(=O)N[C@@H](CO)C(=O)N[C@H](C(=O)N[C@H](C(=O)N[C@H](C(=O)N[C@@H](CC(N)=O)C(=O)N[C@@H](Cc1ccc(O)cc1)C(=O)N[C@@H](C(N)=O)[C@H](C)O)[C@@H](C)O)[C@@H](C)O)[C@@H](C)O [D-[Thre]₈-peptide T-amide]
loss of receptor binding activity (T4 antigen; relative to peptide T): ≥ 100 fold | blockade of viral infection (HTLV-III virus; human T cells): greatly reduced blockade of viral infection | concentrations required to achieve significant inhibition, relative to the active peptides (HTLV-III virus; human T cells): 100 fold | rank order of potencies (HTLV-III virus): D-[Ala]₁-peptide T-amide > D-[Ala]₁-peptide T > peptide T > D-[Thre]₈-peptide T-amide

N=C(N)NCCC[C@H](N)C(=O)N1CCC[C@H]1C(=O)N[C@@H](CCCCN)C(=O)N1CCC[C@H]1C(=O)N[C@@H](CCC(N)=O)C(=O)N[C@@H](CCC(N)=O)C(=O)N[C@@H](Cc1ccccc1)C(=O)N[C@@H](Cc1ccccc1)C(=O)O [substance P [1-8], reference compound]
concentration range of significant inhibition of ¹²⁵I-gp120 binding (T4 antigen; rat brain membranes): not
